At least one compound was matched to its structure with a doubt left.
Test system: mouse skin tissue
Experiment: Histological examination of skin tissue, anagen phase model (Example 4)
Format: in vivo, C3H/HeN mice
Settings: positive control, 5% minoxidil
Experimental: Paraffin sections were prepared, stained with hematoxylin/eosin (HE), and microscopically observed. Hair root density and anagen phase/telogen phase ratio were evaluated.

SMILES: Nc1cc(N2CCCCC2)nc(N)[n+]1[O-] [Minoxidil, minoxidil, reference compound]
- rate of telogen phase versus anagen phase: the rate of telogen phase is larger than that of anagen phase
- subcutaneous tissue thickness in words: thick

Source: patent publication US10543227B2, “Hair growth composition” (RIKEN, priority 2015, dated 2020)
